# Screening data, single-dose tests

Protein sequences, listed by entry. Tags and fused reporters are not part of them.
UniProt P9WPC5, whole entry: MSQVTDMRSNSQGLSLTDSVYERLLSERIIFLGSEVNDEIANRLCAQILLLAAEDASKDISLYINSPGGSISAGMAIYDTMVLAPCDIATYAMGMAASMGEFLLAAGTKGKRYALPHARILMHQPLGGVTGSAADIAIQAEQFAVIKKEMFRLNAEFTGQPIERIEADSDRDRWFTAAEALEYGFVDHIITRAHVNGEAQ
UniProt P9WPC3, whole entry partner: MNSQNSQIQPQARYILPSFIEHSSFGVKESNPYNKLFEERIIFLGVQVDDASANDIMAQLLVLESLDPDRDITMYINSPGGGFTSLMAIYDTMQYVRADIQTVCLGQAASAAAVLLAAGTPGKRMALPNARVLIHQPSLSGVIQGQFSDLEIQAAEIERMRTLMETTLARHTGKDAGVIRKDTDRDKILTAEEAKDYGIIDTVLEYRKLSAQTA
UniProt I6X8D2, whole entry: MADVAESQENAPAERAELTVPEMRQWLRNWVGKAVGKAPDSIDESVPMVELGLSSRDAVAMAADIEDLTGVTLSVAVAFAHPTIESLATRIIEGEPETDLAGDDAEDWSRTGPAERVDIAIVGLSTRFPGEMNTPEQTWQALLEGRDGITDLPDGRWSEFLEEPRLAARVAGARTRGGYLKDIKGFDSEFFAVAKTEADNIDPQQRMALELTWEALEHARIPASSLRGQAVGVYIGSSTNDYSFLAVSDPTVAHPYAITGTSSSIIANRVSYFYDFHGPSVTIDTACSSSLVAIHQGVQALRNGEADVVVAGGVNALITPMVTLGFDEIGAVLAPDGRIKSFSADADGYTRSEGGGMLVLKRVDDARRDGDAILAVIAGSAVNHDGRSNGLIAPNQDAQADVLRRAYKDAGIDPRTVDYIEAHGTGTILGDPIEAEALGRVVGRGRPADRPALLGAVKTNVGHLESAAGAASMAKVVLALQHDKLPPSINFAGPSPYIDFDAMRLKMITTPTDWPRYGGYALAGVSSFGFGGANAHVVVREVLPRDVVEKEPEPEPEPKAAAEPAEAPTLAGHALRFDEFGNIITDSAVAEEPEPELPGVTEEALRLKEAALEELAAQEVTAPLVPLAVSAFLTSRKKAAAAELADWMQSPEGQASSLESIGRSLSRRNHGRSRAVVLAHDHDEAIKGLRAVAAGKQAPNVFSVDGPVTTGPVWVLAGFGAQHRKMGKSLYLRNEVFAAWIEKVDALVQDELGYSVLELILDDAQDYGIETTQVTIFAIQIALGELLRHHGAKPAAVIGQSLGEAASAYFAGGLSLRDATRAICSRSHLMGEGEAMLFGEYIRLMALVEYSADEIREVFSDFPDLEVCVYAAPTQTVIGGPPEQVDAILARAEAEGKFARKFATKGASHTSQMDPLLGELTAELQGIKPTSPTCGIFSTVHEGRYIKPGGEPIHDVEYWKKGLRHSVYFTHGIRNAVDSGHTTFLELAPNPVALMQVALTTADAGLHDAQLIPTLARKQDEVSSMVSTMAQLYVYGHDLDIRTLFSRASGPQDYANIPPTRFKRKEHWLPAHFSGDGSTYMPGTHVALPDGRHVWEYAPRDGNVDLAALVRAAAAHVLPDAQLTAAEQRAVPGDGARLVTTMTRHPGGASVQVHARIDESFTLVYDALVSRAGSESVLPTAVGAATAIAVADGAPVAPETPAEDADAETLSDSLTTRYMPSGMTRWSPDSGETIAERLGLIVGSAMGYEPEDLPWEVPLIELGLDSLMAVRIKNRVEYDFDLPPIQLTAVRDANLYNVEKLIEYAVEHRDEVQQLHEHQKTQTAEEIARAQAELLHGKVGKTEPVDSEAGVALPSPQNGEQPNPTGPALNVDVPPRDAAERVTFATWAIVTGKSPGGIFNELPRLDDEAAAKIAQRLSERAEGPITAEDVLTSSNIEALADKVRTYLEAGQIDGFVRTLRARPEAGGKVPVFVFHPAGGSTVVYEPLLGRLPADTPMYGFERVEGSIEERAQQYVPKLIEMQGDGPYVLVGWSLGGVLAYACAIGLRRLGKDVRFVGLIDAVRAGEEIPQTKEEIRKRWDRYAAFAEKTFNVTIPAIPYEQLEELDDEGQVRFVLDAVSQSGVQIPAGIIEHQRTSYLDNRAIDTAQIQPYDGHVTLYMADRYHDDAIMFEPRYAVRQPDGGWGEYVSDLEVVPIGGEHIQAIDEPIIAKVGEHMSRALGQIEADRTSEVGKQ
UniProt P9WFT3, whole entry: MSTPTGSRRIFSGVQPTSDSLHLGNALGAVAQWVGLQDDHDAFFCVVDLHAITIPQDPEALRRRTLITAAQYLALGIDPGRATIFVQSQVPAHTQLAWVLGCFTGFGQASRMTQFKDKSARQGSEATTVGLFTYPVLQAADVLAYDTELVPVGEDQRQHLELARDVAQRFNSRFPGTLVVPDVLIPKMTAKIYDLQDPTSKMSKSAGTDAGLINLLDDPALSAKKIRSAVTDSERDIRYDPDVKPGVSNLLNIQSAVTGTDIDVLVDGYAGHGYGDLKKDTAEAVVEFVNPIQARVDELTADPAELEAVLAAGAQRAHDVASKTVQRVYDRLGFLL

Source: ChEMBL document CHEMBL3988442, “University of Dundee, Small-Polar-MMV Screening Library” (2021).

Values are the deposited “Percent Effect”, in %.
The record does not define 0% and 100%; most values in the screen are far below 50% and negative numbers occur (in some assays of this library far below -100).
The compounds are a random part of those screened.
A dash means the value is not listed here; it may have been measured.

ClpP1P2: 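ClpP1P2, Mycobacterium tuberculosis (UniProt P9WPC5 and UniProt P9WPC3). Protease assay of ClpP1P2, read by the AMC dye that it sets free. Concentration: 50 µM. Direction is inferred from only a few compounds that gave an IC50; most scored high, so higher reads as stronger inhibition. Most other retested compounds had strongly negative values. Size under these conditions: about 69,000 compounds, about 10 of them at 50% or above in at least one test.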
Pks13 thioesterase: 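Polyketide synthase Pks13, Mycobacterium tuberculosis (UniProt I6X8D2). Enzyme assay of the thioesterase domain of polyketide synthase 13; the read-out is not stated. Concentration: 30 µM. The record gives no direction; the compounds picked for IC50 retests had high values, so higher reads as stronger inhibition. Of about 67,000 compounds tested this way, about 300 (0.46%) reached 50% or more in at least one test.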
MtTrpRS: 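Enzyme assay of tryptophanyl-tRNA synthetase; the read-out is not stated. Target: Tryptophan-tRNA ligase, Mycobacterium tuberculosis (UniProt P9WFT3). Tested at 10 µM. Direction is not recorded; retested compounds ran higher, which suggests that high means inhibition. Of about 65,000 compounds tested this way, about 64 (0.098%) reached 50% or more in at least one test.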

Compound,ClpP1P2,Pks13 thioesterase,MtTrpRS
CN(C)c1nccc(C2CCCN2S(=O)(=O)c2cn(C)cn2)n1 (configuration not stated),2.631,4.63,-7.843
O=C(Nc1cccc(C(F)(F)F)c1)N1CCN(CCn2ccnc2)CC1,0.8238,-31.31,2.401
CCCc1noc(CCC(=O)N2CCCCC2Cn2cc(C)cn2)n1 (configuration not stated),-1.954,-6.881,-1.527
COc1cccc(NC(=O)NCC2CCCN(C3CCOCC3)C2)c1 (configuration not stated),-1.505,-6.671,-3.207
O=C(CN1CCCCC1=O)N1CCC2(CC1)[C@H](O)C[C@@H]2O,-22.46,-3.982,-1.771
COC(=O)c1cccc(C2CNCCN2C)c1 (configuration not stated),14.78,-21.97,11.98
CCn1nc(C)cc1C(=O)N1CC[C@H](OC)[C@H]2CN(CC3CC3)C[C@H]21,0.3857,22.21,-4.333
CC(C)(C)C(O)CN1CCN(Cc2cccc(C#N)c2)CC1 (configuration not stated),14.29,-16.59,8.583
O=C(Cn1cc(C(=O)O)ccc1=O)Nc1ccc(F)cc1Cl,7.717,-20.68,3.819
CCN(CC)CCNc1c(-c2ccccc2)c(=O)c1=O,-4.181,-16.92,-3.223
C[C@]1(O)CN(Cc2cccc(C(=O)O)c2)CC[C@@H]1Oc1cccc(F)c1,-7.969,13.07,-
O=C1CC2(CCN(S(=O)(=O)C3CC3)C2)CN1c1cncnc1 (configuration not stated),10.23,-17.35,-0.5247
CN(C)C(=O)C1CCN(C2CCN(CC3CC3)CC2)CC1,-7.321,3.678,-
c1cc(CN2CCO[C@@H]3CNC[C@@H]32)cs1,3.545,-35.2,4.443
CCCS(=O)(=O)CCN1CCN(C(C#N)c2ccccc2)CC1 (configuration not stated),-0.9228,3.388,-0.9646
COc1ccc(-n2cc(CNC(=O)c3cc[nH]n3)nn2)cc1,-14.77,-2.602,-7.005
C[C@]1(O)CCN(Cc2c[nH]cn2)C[C@@H]1Oc1cccc(F)c1,-2.597,-,-
CCn1cc(NC(=O)NCC(C)O)cn1 (configuration not stated),-1.613,-29.91,2.911
Cc1cccc(C(C(=O)NCc2nc(-c3ncccn3)no2)N(C)C)c1 (configuration not stated),-4.293,-10.08,0.5045
COCCn1cc(C(=O)N2CCCC2c2cnn(C)c2)ccc1=O (configuration not stated),-8.994,-5.426,-3.211
O=C(CCN1CCCCC1c1cc2ccccc2[nH]1)N1CCOCC1 (configuration not stated),-0.748,-9.729,18.18
CN(C)C(=O)N1CCN(Cc2noc(Cc3ccccc3)n2)CC1,-4.534,-27.15,1.652
Cc1ccc(CN2CCC3(CC2)NC(=O)CC3c2ccccc2)s1 (configuration not stated),3.9,-17,-5.638
O=C([C@@H]1Cc2[nH]cnc2CN1C(=O)NC1CCCCC1)N1CCCC1,3.127,-,-3.84
O=c1cc(CN2CCCC(CCc3c(F)cccc3F)C2)[nH]c(=O)[nH]1 (configuration not stated),3.614,-3.76,-1.625
CCc1cc(N[C@@H](CO)C(N)=O)n2nc(C)c(C)c2n1,-10.84,0.9851,0.698
O=C(NC1CC1)N1CCN(c2cnccn2)CC1,-1.384,-0.2783,-4.427
CC(C)CCN1CCN(Cc2nc(C(C)C)no2)CC1,3.059,-26.14,-0.2639
N#Cc1ccc(CCC(=O)N2CCC(CN3CCOCC3)CC2)cc1,12.99,-1.529,3.312
Cc1nc(C(F)(F)F)nc(N2CCC3(CC2)CC(C(=O)O)N(C)C3)c1C (configuration not stated),-2.503,-33.41,-0.9909
O=C1CCC(C(=O)NCc2nncn2-c2ccccc2)CN1 (configuration not stated),9.387,-5.77,2.895
CN(Cc1ccncn1)C(=O)CCC(=O)NC1CCCC1,-13.03,-36.92,-0.7508
OCC1(Cc2cccc(Cl)c2)CCCN(c2ncccn2)C1 (configuration not stated),-14.49,20.26,5.229
CC(C)c1noc(CCCC(=O)N2CCC(Cc3cccnc3)CC2)n1,-6.693,-10,2.911
COc1ccccc1CC1CCN(C(=O)CCc2ccccn2)CC1,0.3129,-16.92,-2.801
CN(C)CCNC(=O)[C@H]1C[C@H]2CN(c3ncccn3)C[C@H]2N1C,8.8,-18.51,3.066
c1cnc(N2CCC(c3n[nH]c4ncccc34)C2)nc1 (configuration not stated),-6.588,16.05,-
Cc1csc(N2CCCN(C(=O)c3c(C)oc(C)c3C)CC2)n1,-1.106,-6.312,-5.152
COC(=O)c1cccc(C(=O)NCc2ccco2)n1,-10.9,-9.002,-1.159
O=C(c1ccoc1)N1CCCN(C(=O)c2ccc(C3CCCN3)s2)CC1 (configuration not stated),3.127,-19.04,-6.386
Fc1ccccc1Cc1noc(CN2CCC(C3CCCCC3)C2)n1 (configuration not stated),-12.93,-3.805,-3.938
Cc1nc(N)nc(C)c1CC(=O)NCc1ccc2nonc2c1,-2.96,-21.47,-3.791
COCCC1COC2(CCN(C(=O)c3ccco3)CC2)C1 (configuration not stated),4.94,-17.32,-1.41
Cc1occc(=O)c1OCC(=O)N1CCN(c2ccccc2)CC1,-1.358,1.385,3.885
Cn1ccnc1CN1CCCN(C(=O)c2ccc3[nH]nnc3c2)CC1,-24.3,-25.24,-5.943
CC(=O)N1CCCC1C(=O)NCCOc1c(C)cccc1C (configuration not stated),-8.036,-13.88,-5.511
CCN1CC(C(=O)NC(C)(C)CNC(=O)OC(C)(C)C)CC1=O (configuration not stated),-5.238,-22.07,0.5029
CN1CCN(Cc2cn3c(n2)CN(Cc2cccnc2)CC3)CC1,7.045,-7.57,1.133
CC1(Cc2ccccn2)NCCc2[nH]cnc21 (configuration not stated),-7.841,-25.3,-0.2329
Cc1cc(CNc2ccc(C(=O)N3CCCC(C)C3)cc2C)no1 (configuration not stated),-7.502,30.22,-1.039
Cc1cnn(CC(=O)N2CCC(Nc3ccc(C)nn3)CC2)c1,-31.96,-23.18,10.61
NC(=O)NCC(=O)N1C[C@H]2CC[C@@H]1CN(Cc1cscn1)C2,2.214,-13.25,2.967
CCC1CN(C(=O)c2cccc(OCc3cscn3)c2)CCO1 (configuration not stated),-2.796,-17.75,-4.545
Cc1ccccc1OCC(=O)N1CC[C@]2(C[C@@H](OCC3CC3)CO2)C1,-13.2,-33.46,-1.833
Cc1cc(F)ccc1OC1(C(=O)O)CCN(Cc2c[nH]cn2)CC1,-11.68,-24.02,-0.8112
N#Cc1cc2c(nc1O)CCCCC2,4.005,26.73,-
O=C(O)CCc1cc2n(n1)CCCN(C(=O)c1ccc3cc[nH]c3c1)C2,-7.865,-9.323,-0.5418
O=C(Cc1c[nH]c2ccccc12)N1CCC(Nc2cccnn2)CC1,4.61,-4.81,-3.155
Cc1c[nH]c(CN2CCOC(c3ccc(Cl)cc3)C2)c(C)c1=O (configuration not stated),-2.885,-14.32,-0.2329
O=C(NCc1ccc(F)cc1)C1CCCN(c2ccc3nncn3n2)C1 (configuration not stated),-9.055,-36.51,-1.483
CN(Cc1cnn(C)c1)C(=O)c1ccc(=O)n(Cc2ccccc2)n1,10.86,0.1968,4.181
O=C(c1ccccn1)N1CCC(Cc2cnc3[nH]ccc3c2)CC1,3.692,-1.398,-
Cn1c(=O)c2cc(C(=O)NCCOCC(F)(F)F)ccc2n(C)c1=O,7.033,-13.44,-
Cn1cc(C(=O)NCc2cn3c(n2)CN(C2CCOCC2)CC3)cn1,-11.05,8.805,3.985
Nc1ccnc(N2CCC(c3nccn3CC3CC3)CC2)n1,4.266,-11.87,0.2138
CN(C1CCN(c2ccccn2)CC1)S(=O)(=O)c1ccc(F)cc1,-3.768,9.574,2.386
O=C(Cc1ccc(Br)cc1)N1CC(S(=O)(=O)C2CCCCC2)C1,-10.89,-30.95,-0.6839
Cc1cccc(C(C(=O)NCCCc2ccccn2)N(C)C)c1 (configuration not stated),-2.498,-19.79,1.652
CN(C)c1nc2c(c(NCc3cc(O)ncn3)n1)CCCC2,8.782,-40.67,1.961
c1ccc(CCNCC2Cn3nncc3CO2)cc1 (configuration not stated),2.573,13.1,-9.332
Cn1cc(CNCCNC(=O)Cc2ccccc2)c(-c2cccnc2)n1,-11.41,-15.86,-7.354
O=C(O)C1(Cc2ccc(F)cc2F)CCCN(Cc2ccncc2)C1 (configuration not stated),4.06,22.78,-2.144

The last 4 entries again:

Compound	ClpP1P2	Pks13 thioesterase	MtTrpRS
CN(C)c1nc2c(c(NCc3cc(O)ncn3)n1)CCCC2	8.782	-40.67	1.961
c1ccc(CCNCC2Cn3nncc3CO2)cc1 (configuration not stated)	2.573	13.1	-9.332
Cn1cc(CNCCNC(=O)Cc2ccccc2)c(-c2cccnc2)n1	-11.41	-15.86	-7.354
O=C(O)C1(Cc2ccc(F)cc2F)CCCN(Cc2ccncc2)C1 (configuration not stated)	4.06	22.78	-2.144